Data on one substance can be found in paper PMC7817816.

Chains of the proteins cited; added tags and fusions are not shown.
UniProt Q13950: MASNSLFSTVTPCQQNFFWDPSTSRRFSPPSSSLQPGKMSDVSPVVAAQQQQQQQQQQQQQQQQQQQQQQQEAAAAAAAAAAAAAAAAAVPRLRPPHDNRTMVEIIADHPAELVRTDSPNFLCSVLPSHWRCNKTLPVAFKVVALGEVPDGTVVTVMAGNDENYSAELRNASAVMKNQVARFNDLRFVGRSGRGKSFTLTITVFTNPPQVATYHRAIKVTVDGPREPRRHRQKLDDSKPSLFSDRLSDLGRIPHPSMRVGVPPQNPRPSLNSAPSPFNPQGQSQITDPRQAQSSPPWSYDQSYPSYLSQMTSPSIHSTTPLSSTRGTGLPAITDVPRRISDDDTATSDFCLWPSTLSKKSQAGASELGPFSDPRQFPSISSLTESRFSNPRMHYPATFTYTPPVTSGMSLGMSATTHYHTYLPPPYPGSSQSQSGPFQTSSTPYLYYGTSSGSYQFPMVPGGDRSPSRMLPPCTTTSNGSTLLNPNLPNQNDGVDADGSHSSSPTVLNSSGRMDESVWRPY

For the experiment, the target named is Myc-RUNX2 (Runt-related transcription factor 2) (UniProt Q13950). As to the kind of experiment: co-IP; CHIP and RUNX2 with or without overexpression of TRIM16; IP with anti-Myc, probed with anti-Flag.

No constants are given. Whether binding was seen depends on the method and setting. In cells and extracts the contact can be indirect. Some binding calls cover weakened binding; strength is not graded here.

In the case of “Flag-CHIP (carboxy terminus of HSP70 interacting protein) (from UniProt Q9UNE7-1 1-303)”, the binding entry was “binds”.
